PubChem BioAssay AID652243 – Drosophila RNAi Screening Center, 2013
The deposit covers about 24,000 reagents; below is a random part of those that have a named target and a result. In the full data, 246 (1%) got an active call. 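Plates not normalised; calls are printed but the firefly/Renilla ratio behind them is not deposited; fold cut for lowering reported inconsistently.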 The raw values are shown without normalisation. Unmarked entries are inactive. Names joined by + are all predicted targets of the reagent. The record does not give: the amount of reagent.

Purpose: 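Fly genes required for human androgen receptor driven transcription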 (primary screen)
Cells: Drosophila S2R+ cells
Reagent: long dsRNA against Drosophila genes
Time to read-out: 72 h (48 h, then 24 h hormone)
Treatment: synthetic androgen R1881 at 10 nM for 24 h
Measured: 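Per-well raw luminescence of the androgen-driven firefly reporter and of the Renilla control, two replicates each, without normalisation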
Reading the numbers: firefly reporter light: higher = more light from androgen-responsive reporter; Renilla control light: higher = more constitutive control signal (cell number, transfection)
Active means: 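Across duplicate plates, a knock-down whose log firefly/Renilla ratio shifted a set fold down or up from the GFP/LacZ control mean was a hit; the downward cut appears as both 1.5 and 3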
Meaning of the calls: active = hit: reporter lowered or raised; inactive = no hit

Gene	DRSC id	firefly reporter light, replicate 1	firefly reporter light, replicate 2	Renilla control light, replicate 1	Renilla control light, replicate 2
Dh31	DRSC02196	1.90e5	2.07e5	1.74e6	1.58e6
yellow-g	DRSC08575	26529	24758	8.86e5	7.55e5
CG2003	DRSC15411	1.54e5	1.39e5	1.87e6	2.66e6
betaGlu	DRSC15419	89613	73734	5.20e5	4.30e5
betaGlu	DRSC24889	6.40e5	7.36e5	4.85e5	8.28e5
betaGlu	DRSC39080	6.96e5	4.24e5	1.74e6	1.70e6
I-3	DRSC20479	1.60e5	1.33e5	6.80e5	5.10e5
CIA30	DRSC16266	1.08e5	1.48e5	1.03e6	7.25e5
Blos1	DRSC05970	42093	67433	1.13e6	1.13e6
Maf1	DRSC37750	9.26e5	9.96e5	1.97e6	2.63e6
CG5849	DRSC15893	3.43e5	3.55e5	3.12e6	3.42e6
CG7786	DRSC07045	84093	1.24e5	2.09e6	2.09e6
CG7786	DRSC26604	3.27e5	3.10e5	7.72e5	7.38e5
CG3092	DRSC04336	7.87e5	6.11e5	1.00e6	1.09e6
CG3092	DRSC30054	9.13e5	1.03e6	1.39e6	8.74e5
jef	DRSC06198	66508	1.12e5	1.70e6	1.70e6
jef	DRSC24815	9.89e5	7.85e5	1.30e6	1.09e6
CG42237	DRSC19891	4.93e5	5.97e5	2.98e6	3.21e6
LManVI	DRSC03224	2.24e5	1.39e5	1.21e6	1.06e6
LManVI	DRSC27521	2.56e5	2.22e5	5.47e5	7.88e5
Ir7g	DRSC18008	1.25e5	2.23e5	1.93e6	2.25e6
Ir7g	DRSC28922	4.86e5	4.63e5	1.07e6	1.28e6
Ugt302C1	DRSC15353	80648	73217	4.45e5	3.87e5
Ugt302C1	DRSC24517	9.98e5	4.80e5	1.69e6	6.16e5
CG12934	DRSC06247	47815	40786	8.52e5	6.50e5
CG12934	DRSC23570	7.14e5	1.05e6	1.33e6	1.39e6
Socs36E	DRSC02455	2.50e5 (active)	1.99e5	2.93e6	2.26e6
Socs36E	DRSC27917	5.68e5	4.76e5	2.38e6	1.22e6
Vps45	DRSC16398	37159	62910	1.39e6	1.21e6
gpp	DRSC12515	30811	47181	9.10e5	1.15e6
gpp	DRSC28193	7.10e5	6.71e5	2.01e6	1.43e6
Twdlbeta	DRSC07310	2.24e5	2.55e5	1.55e6	1.68e6
Twdlbeta	DRSC25646	7.49e5	8.05e5	1.01e6	1.22e6
CG7079	DRSC16192	1.54e5	2.06e5	3.01e6	3.16e6
CG7079	DRSC29827	5.81e5	6.25e5	1.26e6	1.38e6
CG9609	DRSC20199	66675	72332	4.61e5	6.46e5
CG9609	DRSC26952	3.70e5	2.68e5	6.48e5	5.22e5
CG12159	DRSC06114	1.54e5	2.27e5	1.73e6	1.48e6
JYalpha (retired record) + JYalpha	DRSC21700	5.10e5	5.92e5	2.67e6	2.79e6
Ser8	DRSC06891	94136	96762	1.77e6	1.77e6
Ser8	DRSC25468	4.05e5	3.30e5	5.92e5	3.06e5
Polr2K	DRSC38870	9.56e5	1.13e6	1.46e6	1.52e6
CG11362	DRSC04106	4.15e5	3.77e5	3.37e6	2.93e6
CG11362	DRSC22032	6.89e5	5.41e5	2.93e6	1.65e6
CG11362	DRSC27136	2.68e5	2.60e5	7.44e5	8.08e5
CG18327	DRSC06722	47722	41360	1.31e6	1.31e6
CG18327	DRSC24393	8.02e5	5.58e5	9.48e5	7.66e5
Aldh-III	DRSC06047	7.58e5	9.05e5	1.40e6	1.98e6
Aldh-III	DRSC26578	9.89e5	9.08e5	6.12e5	8.87e5
CG5355	DRSC02844	8.06e5	9.58e5	1.59e6	1.55e6
mei-S332	DRSC04704	6.79e5	6.44e5	1.56e6	1.24e6
CG17260	DRSC00497	7.76e5	9.07e5	1.76e6	1.57e6
CG17260	DRSC29415	7.56e5	8.74e5	6.83e5	6.83e5
CG8861	DRSC12731	1.18e5	1.16e5	2.12e5	2.62e5
CG8861	DRSC16449	1.41e5	1.83e5	2.58e6	2.80e6
Oseg6	DRSC06066	62797	1.08e5	1.16e6	1.42e6
CG7509	DRSC08596	8.20e5	6.41e5	1.35e6	1.12e6
CG17600	DRSC20640	1.63e5	84536	2.14e5	2.40e5
CG17600	DRSC22753	6.22e5	1.06e6	8.23e5	1.29e6
CG17600	DRSC27203	2.94e5	1.29e5	7.07e5	2.28e5
CG10492	DRSC24982	1.04e6	8.53e5	8.86e5	5.68e5
CG31463	DRSC14346	28473	19730	4.36e5	3.72e5
CG31463	DRSC26552	2.80e5	3.16e5	5.15e5	5.58e5
CG9289	DRSC03187	3.13e5	3.26e5	1.25e6	1.32e6
CG9289	DRSC28115	6.23e5	5.72e5	1.68e6	1.58e6
Vrp1	DRSC04148	7.91e5	2.19e5	2.00e6	9.64e5
Vrp1	DRSC26671	4.22e5	4.39e5	5.85e5	5.41e5
eIF3h	DRSC01995	6.44e5	7.32e5	2.02e6	1.72e6
eIF3h	DRSC27567	3.92e5	3.25e5	6.07e5	3.77e5
CG7739	DRSC10910	78145	62814	1.31e6	7.26e5
Cad86C	DRSC15587	1.28e5	1.93e5	3.02e6	3.67e6
Cad86C	DRSC15611	1.83e5	2.33e5	2.63e6	2.07e6
Cad86C	DRSC27602	2.64e5	2.42e5	4.38e5	6.43e5
Cad86C	DRSC28094	9.12e5	1.13e6	1.41e6	1.53e6

Hits, among the entries above:
Gene	DRSC id	firefly reporter light, replicate 1	firefly reporter light, replicate 2	Renilla control light, replicate 1	Renilla control light, replicate 2
Socs36E	DRSC02455	2.50e5 (active)	1.99e5	2.93e6	2.26e6
